Some of the results follow. Single values are uncertain, as repeats are few or missing.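 Cells were imaged in 1,536-well plates, and nuclei stained with an antibody against cleaved PARP were counted against all DNA-stained nuclei to give the apoptosis fraction. Screening doses were chosen to leave most cells alive, and resting and induced cleaved-PARP levels differ strongly between cell lines.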
Experiments:
Assay in all cases: cleaved PARP positive nuclei fraction relative to DMSO control; melanoma cells; higher = more apoptosis
Details in all cases: library dose: low library concentration; 72 h
501Mel = test system: 501Mel
A101D = test system: A101D
A2058 = test system: A2058
A375 = test system: A375
C32 = test system: C32
CBRC008 = test system: CBRC008 (line from a melanoma biopsy)
CBRC013 = test system: CBRC013 (line from a melanoma biopsy)
CBRC014 = test system: CBRC014 (line from a melanoma biopsy)
CBRC016 = test system: CBRC016 (line from a melanoma biopsy)
CBRC017 = test system: CBRC017 (line from a melanoma biopsy)

Compound	cleaved PARP positive nuclei fraction (501Mel) [%]	cleaved PARP positive nuclei fraction (A101D) [%]	cleaved PARP positive nuclei fraction (A2058) [%]	cleaved PARP positive nuclei fraction (A375) [%]	cleaved PARP positive nuclei fraction (C32) [%]	cleaved PARP positive nuclei fraction (CBRC008) [%]	cleaved PARP positive nuclei fraction (CBRC013) [%]	cleaved PARP positive nuclei fraction (CBRC014) [%]	cleaved PARP positive nuclei fraction (CBRC016) [%]	cleaved PARP positive nuclei fraction (CBRC017) [%]
COc1cc(Nc2ncc(F)c(Nc3ccc4c(n3)NC(=O)C(C)(C)O4)n2)cc(OC)c1OC [Tamatinib] + Cn1cncc1[C@@](N)(c1ccc(Cl)cc1)c1ccc2c(c1)c(-c1cccc(Cl)c1)cc(=O)n2C [tipifarnib] (first compound 0.4 µM, partner dose 0.01 µM)	133	134	57.9	322	259	248	107	122	52.3	117
C=CCNC1=C2C[C@@H](C)C[C@H](OC)[C@H](O)[C@@H](C)/C=C(\C)[C@H](OC(N)=O)[C@@H](OC)/C=C\C=C(/C)C(=O)NC(=CC1=O)C2=O [Tanespimycin] + COc1cc2c(Oc3ccc4[nH]c(C)cc4c3F)ncnc2cc1OCCCN1CCCC1 [cediranib] (first compound 0.002 µM, partner dose 0.4 µM)	51.7	41.3	79.8	82	23.9	889	105	81.3	68.3	89.9
CC1(C)NC(=O)N(c2ccc([N+](=O)[O-])c(C(F)(F)F)c2)C1=O [nilutamide] + C[C@@H]1CCN(C(=O)CC#N)C[C@@H]1N(C)c1ncnc2[nH]ccc12 [CP690550] (first compound 1 µM, partner dose 1 µM)	88.4	126	62.9	110	89.6	55.4	140	162	253	94
C[C@]1(c2nc3c(C(N)=O)cccc3[nH]2)CCCN1 [Veliparib] + CO[C@@H]1[C@H](N(C)C(=O)c2ccccc2)C[C@H]2O[C@]1(C)n1c3ccccc3c3c4c(c5c6ccccc6n2c5c31)C(=O)NC4 [Midostaurin] (first compound 1.4 µM, partner dose 0.08 µM)	66.1	168	120	207	165	361	91.4	102	231	138
Cc1nc(Nc2ncc(C(=O)Nc3c(C)cccc3Cl)s2)cc(N2CCN(CCO)CC2)n1 [dasatanib] + CC1(C)NC(=O)N(c2ccc([N+](=O)[O-])c(C(F)(F)F)c2)C1=O [nilutamide] (first compound 0.004 µM, partner dose 1 µM)	94.3	84.5	111	188	356	36	102	112	85	112
C[C@]1(c2nc3c(C(N)=O)cccc3[nH]2)CCCN1 [Veliparib] + Cn1cncc1[C@@](N)(c1ccc(Cl)cc1)c1ccc2c(c1)c(-c1cccc(Cl)c1)cc(=O)n2C [tipifarnib] (first compound 1.4 µM, partner dose 0.01 µM)	114	56	182	224	128	102	154	108	134	109
Cn1nnc2c(C(N)=O)ncn2c1=O [temozolomide] + CO[C@@H]1[C@H](N(C)C(=O)c2ccccc2)C[C@H]2O[C@]1(C)n1c3ccccc3c3c4c(c5c6ccccc6n2c5c31)C(=O)NC4 [Midostaurin] (first compound 2 µM, partner dose 0.08 µM)	265	191	237	63.3	58.7	59	65.9	105	159	127
CC(=O)c1c(C)c2cnc(Nc3ccc(N4CCNCC4)cn3)nc2n(C2CCCC2)c1=O [palbociclib] + C[C@@H]1CCN(C(=O)CC#N)C[C@@H]1N(C)c1ncnc2[nH]ccc12 [CP690550] (first compound 0.04 µM, partner dose 1 µM)	116	70	89.7	97.1	124	114	102	100	56.2	245
C#Cc1cccc(Nc2ncnc3cc(OCCOC)c(OCCOC)cc23)c1 [erlotinib] + CO[C@@H]1[C@H](N(C)C(=O)c2ccccc2)C[C@H]2O[C@]1(C)n1c3ccccc3c3c4c(c5c6ccccc6n2c5c31)C(=O)NC4 [Midostaurin] (first compound 0.8 µM, partner dose 0.08 µM)	69.2	182	104	122	58.9	241	141	99.5	35.5	120
C=CCNC1=C2C[C@@H](C)C[C@H](OC)[C@H](O)[C@@H](C)/C=C(\C)[C@H](OC(N)=O)[C@@H](OC)/C=C\C=C(/C)C(=O)NC(=CC1=O)C2=O [Tanespimycin] + CC(C)(C)c1cnc(CSc2cnc(NC(=O)C3CCNCC3)s2)o1 [SNS-032] (first compound 0.002 µM, partner dose 0.01 µM)	99.7	145	50	126	495	76	126	74.8	81.9	91.7
CC(=O)c1c(C)c2cnc(Nc3ccc(N4CCNCC4)cn3)nc2n(C2CCCC2)c1=O [palbociclib] + NC(=O)Nc1cc(-c2cccc(F)c2)sc1C(=O)N[C@H]1CCCNC1 [AZD7762] (first compound 0.04 µM, partner dose 0.02 µM)	119	52.9	103	254	61.6	197	81.4	102	64.9	97.7
CO[C@@H]1[C@H](N(C)C(=O)c2ccccc2)C[C@H]2O[C@]1(C)n1c3ccccc3c3c4c(c5c6ccccc6n2c5c31)C(=O)NC4 [Midostaurin] + Cn1cncc1[C@@](N)(c1ccc(Cl)cc1)c1ccc2c(c1)c(-c1cccc(Cl)c1)cc(=O)n2C [tipifarnib] (first compound 0.08 µM, partner dose 0.01 µM)	39.1	90.9	43.8	287	100	204	142	95	170	180
Cn1c(Nc2ccc(C(F)(F)F)cc2)nc2cc(Oc3ccnc(-c4ncc(C(F)(F)F)[nH]4)c3)ccc21 + NC(=O)Nc1cc(-c2cccc(F)c2)sc1C(=O)N[C@H]1CCCNC1 [AZD7762] (first compound 0.08 µM, partner dose 0.02 µM)	50.1	141	163	446	346	144	35.3	110	41.5	137
Nc1cccc2c1CN(C1CCC(=O)NC1=O)C2=O (stereo not given) [lenalidomide] + Cn1cncc1[C@@](N)(c1ccc(Cl)cc1)c1ccc2c(c1)c(-c1cccc(Cl)c1)cc(=O)n2C [tipifarnib] (first compound 1 µM, partner dose 0.01 µM)	82.6	93.8	76.5	75	51.6	62.6	154	94.9	176	97.8
NC(=O)Nc1cc(-c2cccc(F)c2)sc1C(=O)N[C@H]1CCCNC1 + C[C@@H]1CCN(C(=O)CC#N)C[C@@H]1N(C)c1ncnc2[nH]ccc12 [CP690550] (first compound 0.02 µM, partner dose 1 µM)	70.4	114	96.5	436	74.4	88.1	100	82.5	115	92.6
CO[C@@H]1[C@H](N(C)C(=O)c2ccccc2)C[C@H]2O[C@]1(C)n1c3ccccc3c3c4c(c5c6ccccc6n2c5c31)C(=O)NC4 [Midostaurin] + CN(C)S(=O)(=O)c1ccc2c(c1)/C(=C/c1cc3c([nH]1)CCCC3)C(=O)N2 [SU6656] (first compound 0.08 µM, partner dose 0.4 µM)	92.3	102	113	455	166	235	116	125	163	108
Nc1cccc2c1CN(C1CCC(=O)NC1=O)C2=O (stereo not given) [lenalidomide] + O=C(O)c1ccc(-c2c[nH]c3ncc(-c4ccccc4)cc23)cc1C1CCCC1 [GSK650394] (first compound 1 µM, partner dose 0.16 µM)	74.1	68.6	166	107	83.7	357	119	111	197	113
CC(C)(C)c1cnc(CSc2cnc(NC(=O)C3CCNCC3)s2)o1 + Cn1cncc1[C@@](N)(c1ccc(Cl)cc1)c1ccc2c(c1)c(-c1cccc(Cl)c1)cc(=O)n2C [tipifarnib] (first compound 0.01 µM, partner dose 0.01 µM)	187	121	121	430	319	73.1	151	103	117	104
Cc1nc(Nc2ncc(C(=O)Nc3c(C)cccc3Cl)s2)cc(N2CCN(CCO)CC2)n1 [dasatanib] + NCC(=O)Nc1ccc(-n2nc(C(F)(F)F)cc2-c2ccc3c(ccc4ccccc43)c2)cc1 [OSU03012] (first compound 0.004 µM, partner dose 1 µM)	182	179	115	4830	173	116	103	123	97.5	113

Some of the entries above in another layout.

| Compound | cleaved PARP positive nuclei fraction (501Mel) [%] | cleaved PARP positive nuclei fraction (A101D) [%] | cleaved PARP positive nuclei fraction (A2058) [%] | cleaved PARP positive nuclei fraction (A375) [%] | cleaved PARP positive nuclei fraction (C32) [%] | cleaved PARP positive nuclei fraction (CBRC008) [%] | cleaved PARP positive nuclei fraction (CBRC013) [%] | cleaved PARP positive nuclei fraction (CBRC014) [%] | cleaved PARP positive nuclei fraction (CBRC016) [%] | cleaved PARP positive nuclei fraction (CBRC017) [%] |
| --- | --- | --- | --- | --- | --- | --- | --- | --- | --- | --- |
| COc1cc(Nc2ncc(F)c(Nc3ccc4c(n3)NC(=O)C(C)(C)O4)n2)cc(OC)c1OC [Tamatinib] + Cn1cncc1[C@@](N)(c1ccc(Cl)cc1)c1ccc2c(c1)c(-c1cccc(Cl)c1)cc(=O)n2C [tipifarnib] (first compound 0.4 µM, partner dose 0.01 µM) | 133 | 134 | 57.9 | 322 | 259 | 248 | 107 | 122 | 52.3 | 117 |
| CC1(C)NC(=O)N(c2ccc([N+](=O)[O-])c(C(F)(F)F)c2)C1=O [nilutamide] + C[C@@H]1CCN(C(=O)CC#N)C[C@@H]1N(C)c1ncnc2[nH]ccc12 [CP690550] (first compound 1 µM, partner dose 1 µM) | 88.4 | 126 | 62.9 | 110 | 89.6 | 55.4 | 140 | 162 | 253 | 94 |
| CO[C@@H]1[C@H](N(C)C(=O)c2ccccc2)C[C@H]2O[C@]1(C)n1c3ccccc3c3c4c(c5c6ccccc6n2c5c31)C(=O)NC4 [Midostaurin] + CN(C)S(=O)(=O)c1ccc2c(c1)/C(=C/c1cc3c([nH]1)CCCC3)C(=O)N2 [SU6656] (first compound 0.08 µM, partner dose 0.4 µM) | 92.3 | 102 | 113 | 455 | 166 | 235 | 116 | 125 | 163 | 108 |
| CC(C)(C)c1cnc(CSc2cnc(NC(=O)C3CCNCC3)s2)o1 + Cn1cncc1[C@@](N)(c1ccc(Cl)cc1)c1ccc2c(c1)c(-c1cccc(Cl)c1)cc(=O)n2C [tipifarnib] (first compound 0.01 µM, partner dose 0.01 µM) | 187 | 121 | 121 | 430 | 319 | 73.1 | 151 | 103 | 117 | 104 |
| Cc1nc(Nc2ncc(C(=O)Nc3c(C)cccc3Cl)s2)cc(N2CCN(CCO)CC2)n1 [dasatanib] + NCC(=O)Nc1ccc(-n2nc(C(F)(F)F)cc2-c2ccc3c(ccc4ccccc43)c2)cc1 [OSU03012] (first compound 0.004 µM, partner dose 1 µM) | 182 | 179 | 115 | 4830 | 173 | 116 | 103 | 123 | 97.5 | 113 |
